The text below walks through data of article PMC3907333.

By UniProt entry, the sequences of proteins in these tests, tags left out.
UniProt O13731: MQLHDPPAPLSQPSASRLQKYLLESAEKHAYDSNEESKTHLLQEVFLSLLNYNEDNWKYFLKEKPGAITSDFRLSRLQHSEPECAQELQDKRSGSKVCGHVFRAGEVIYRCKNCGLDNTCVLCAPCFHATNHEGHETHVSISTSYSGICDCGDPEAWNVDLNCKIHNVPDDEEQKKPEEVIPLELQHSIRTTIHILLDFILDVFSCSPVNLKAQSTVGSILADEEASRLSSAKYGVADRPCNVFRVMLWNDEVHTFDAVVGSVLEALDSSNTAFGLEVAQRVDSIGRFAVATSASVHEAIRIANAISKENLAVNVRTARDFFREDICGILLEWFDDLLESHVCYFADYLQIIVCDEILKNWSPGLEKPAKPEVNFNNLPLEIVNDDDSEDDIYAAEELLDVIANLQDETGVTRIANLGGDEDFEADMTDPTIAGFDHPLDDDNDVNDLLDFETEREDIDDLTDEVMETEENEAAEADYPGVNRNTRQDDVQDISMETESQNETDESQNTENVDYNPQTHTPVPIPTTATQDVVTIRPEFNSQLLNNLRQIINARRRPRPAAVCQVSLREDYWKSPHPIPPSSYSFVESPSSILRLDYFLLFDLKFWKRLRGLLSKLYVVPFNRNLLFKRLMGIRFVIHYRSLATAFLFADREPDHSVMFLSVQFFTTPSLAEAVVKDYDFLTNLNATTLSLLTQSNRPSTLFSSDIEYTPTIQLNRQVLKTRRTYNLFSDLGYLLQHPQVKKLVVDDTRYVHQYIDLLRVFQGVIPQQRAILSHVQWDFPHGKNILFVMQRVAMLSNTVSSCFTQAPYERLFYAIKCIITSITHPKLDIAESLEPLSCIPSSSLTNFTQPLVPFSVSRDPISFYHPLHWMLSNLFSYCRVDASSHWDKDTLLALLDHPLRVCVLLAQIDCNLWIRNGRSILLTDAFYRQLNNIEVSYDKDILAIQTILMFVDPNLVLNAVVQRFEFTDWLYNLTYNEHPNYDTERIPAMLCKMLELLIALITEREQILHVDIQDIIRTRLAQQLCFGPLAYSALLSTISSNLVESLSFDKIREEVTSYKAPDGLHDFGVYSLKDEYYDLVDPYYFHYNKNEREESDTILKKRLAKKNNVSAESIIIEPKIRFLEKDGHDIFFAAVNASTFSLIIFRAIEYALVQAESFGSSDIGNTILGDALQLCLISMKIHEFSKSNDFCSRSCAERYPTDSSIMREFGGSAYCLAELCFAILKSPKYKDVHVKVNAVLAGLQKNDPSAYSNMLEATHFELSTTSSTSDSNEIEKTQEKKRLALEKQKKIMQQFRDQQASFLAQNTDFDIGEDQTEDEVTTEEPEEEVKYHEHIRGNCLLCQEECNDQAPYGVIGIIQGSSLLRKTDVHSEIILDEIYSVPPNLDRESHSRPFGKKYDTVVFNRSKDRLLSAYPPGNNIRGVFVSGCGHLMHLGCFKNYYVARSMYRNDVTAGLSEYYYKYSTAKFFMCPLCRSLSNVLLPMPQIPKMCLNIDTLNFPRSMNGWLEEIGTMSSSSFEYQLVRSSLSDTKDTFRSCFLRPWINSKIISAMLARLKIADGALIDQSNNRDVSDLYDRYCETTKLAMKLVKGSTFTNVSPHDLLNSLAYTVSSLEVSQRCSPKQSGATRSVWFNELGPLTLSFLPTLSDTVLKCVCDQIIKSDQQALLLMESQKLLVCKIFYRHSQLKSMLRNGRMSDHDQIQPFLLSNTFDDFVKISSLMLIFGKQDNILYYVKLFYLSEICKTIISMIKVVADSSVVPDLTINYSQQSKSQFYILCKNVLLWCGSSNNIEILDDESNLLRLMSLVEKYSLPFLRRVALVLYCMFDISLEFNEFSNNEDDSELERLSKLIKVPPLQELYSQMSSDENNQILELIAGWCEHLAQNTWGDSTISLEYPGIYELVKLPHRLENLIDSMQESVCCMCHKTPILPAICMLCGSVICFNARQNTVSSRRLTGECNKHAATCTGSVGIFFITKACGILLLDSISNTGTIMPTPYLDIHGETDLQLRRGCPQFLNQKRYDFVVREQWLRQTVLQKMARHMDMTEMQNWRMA

This assay concerns the target V5-tagged Ubr11 (S. pombe) (UniProt O13731). Kind of assay: co-IP; V5-tagged Ubr11 or Flag-tagged San1 precipitated with antibodies to V5 or Flag from S. pombe cells treated with Bortezomib; control antibody; blot for HA (Spc7).

No constants are given. Whether binding was seen depends on the method and setting. Binding seen in cells or lysates may run through a third protein.

B1: Spc7-3HA (wild type) (protein, UniProt O59757 1-1364)
chain: MPTSPRRNSIATTDNVIGRNKSRKRPHSLGGPGALQELKEHTNPAKGILKSYSSFSVDPAFTGDEDFNDIHTQINNTVIGISSNVMAASKRLQMEDLQQLSRETSRKSLNRRVSFASHARVRWYPKDHQSDSEKSTSNHSTPERTFASDAKNHSPKGPTTTSFSRNETQSSPHSHSASIISDGSDMDIASPIRSTESDMVSEALNAGHPPPSLYPENDDLSIQNPTKALPEAEKALDVHDATREQVNDREETNMDLTIQFQEADSFLSHSESIKGLSSSEQGTVYSLKASHDPSNQTQLSSPNKSSSPTSIEISDFSKNNENHDQSENKEEEEDMMLTRPIEIPQHFSPIARPLTSQEAIVDMDITSNNINLSPVSHFSNGLDLQNLEEAPMNLTRPINANPHLTNHSPNDLTNGEEEMDTTSAFNIENSHLTLLSPIRPSSRSMEEQIMDLTQPISSTNAPTHLNEDDLNQFTSNISSSSKPRKDNNKTANSSKPIPDSEDFMDITRPFNILSPSKEALSEEQPMELTSTVFPCENSTSHLEVEEAAMDETVAFQIRGNNVELPSADKENAEREEIPSYSDKSENFNTTSFTNHERSPNGNNNLKFSKDPNSSSPSRHVVATPTDKLGTRKRRLRYSTSSFDQSTLRRNRLATIRNARKSISTLNDRELLPVNFFEKKVNSGLYKSVERSENYRLGATPLTAEKPFTTEKPLSSLPEEVSRQPTDDKGEQVSNADVDSGLSKTERLTIQQTNEIKHVPTNTTSSVKLPQQPSNEDEKERITTADYADSTSLERLESQEPNRNELVQVGSSNAGNTTSVGMNEHEKSPVKLSKGVSNVDTSLGASTINTNILNQDSGPNEEIPVGNEPEFDTMPTLPNVEPISLSDFLKMTGIEFLDNLTIAKRRETLLPNAEENKKCSIQELLESFYIQFPLLELYKFSCQQLQDYIAEGKDFVTKIEEETLKENPLLFYEYRKASSDMRVLMDSQFLMMKTFARLQAKGDWYEWREGLMQGIKHELNLNLTGMQRSLTHLMDVANVIHPYAQEIQERYNGSITTVQTLKKQKEFANQYDSTLLAQAQEKLEKLKVEVERRRRLLSEKEERRKELAIKIEQVTNSCSDLELRTNAEQDFYAKNQDFEFDEIKRYEEQLLNLKNELGWTIVSLTAGGIKLATNNTALSPYSAEVTVEILRQNFQVNVDIACKFPNESNACSSNVLEHVASSFSKWHSKVFSRNLRLLKKYLNDVSICWEQIVYLVQDFQRLWYHWPFLSVENDDKSIIINVELYLRSVSSKVKVVFGLPIDTIYQTTEVGKFYASTSVAVKQMYAESEGDSYVSEVLNTLSEVVHCTSTYALSSACLTVWNKYS
On to B1, for which the binding entry is given as “no binding”.
